Measurements taken from publication PMC11574364.
The exact form of at least one protein or probe is not confirmed. For some assays here: Tags and fusion partners may be left off the protein sequences shown.

Sequences of proteins named here, by UniProt entry; tags and fusion partners are left off. A change or cut given only in a name is not applied to a line headed by its entry.
UniProt Q92993: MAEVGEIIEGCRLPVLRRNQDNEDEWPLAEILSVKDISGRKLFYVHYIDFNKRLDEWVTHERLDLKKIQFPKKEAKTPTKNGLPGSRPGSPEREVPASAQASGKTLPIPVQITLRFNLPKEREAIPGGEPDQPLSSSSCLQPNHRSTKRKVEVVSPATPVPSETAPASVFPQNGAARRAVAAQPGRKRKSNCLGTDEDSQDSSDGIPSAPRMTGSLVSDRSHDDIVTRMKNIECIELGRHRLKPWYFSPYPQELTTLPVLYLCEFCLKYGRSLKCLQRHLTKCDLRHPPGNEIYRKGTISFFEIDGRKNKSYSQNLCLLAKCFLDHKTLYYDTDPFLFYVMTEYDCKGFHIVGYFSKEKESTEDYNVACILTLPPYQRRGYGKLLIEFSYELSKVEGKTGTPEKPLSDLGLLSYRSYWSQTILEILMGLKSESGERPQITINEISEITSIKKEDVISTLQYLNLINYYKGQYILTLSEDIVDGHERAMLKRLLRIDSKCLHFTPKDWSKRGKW
UniProt Q8NFB2: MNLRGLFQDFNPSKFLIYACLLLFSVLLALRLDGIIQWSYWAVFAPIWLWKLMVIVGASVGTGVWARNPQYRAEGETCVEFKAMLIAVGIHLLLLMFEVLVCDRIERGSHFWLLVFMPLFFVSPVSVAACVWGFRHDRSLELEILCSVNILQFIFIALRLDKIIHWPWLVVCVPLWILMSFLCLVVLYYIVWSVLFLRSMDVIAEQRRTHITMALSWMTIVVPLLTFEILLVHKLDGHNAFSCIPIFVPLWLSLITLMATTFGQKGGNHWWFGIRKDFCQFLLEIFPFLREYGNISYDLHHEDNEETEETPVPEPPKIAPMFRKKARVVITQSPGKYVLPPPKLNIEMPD
UniProt Q8IV13: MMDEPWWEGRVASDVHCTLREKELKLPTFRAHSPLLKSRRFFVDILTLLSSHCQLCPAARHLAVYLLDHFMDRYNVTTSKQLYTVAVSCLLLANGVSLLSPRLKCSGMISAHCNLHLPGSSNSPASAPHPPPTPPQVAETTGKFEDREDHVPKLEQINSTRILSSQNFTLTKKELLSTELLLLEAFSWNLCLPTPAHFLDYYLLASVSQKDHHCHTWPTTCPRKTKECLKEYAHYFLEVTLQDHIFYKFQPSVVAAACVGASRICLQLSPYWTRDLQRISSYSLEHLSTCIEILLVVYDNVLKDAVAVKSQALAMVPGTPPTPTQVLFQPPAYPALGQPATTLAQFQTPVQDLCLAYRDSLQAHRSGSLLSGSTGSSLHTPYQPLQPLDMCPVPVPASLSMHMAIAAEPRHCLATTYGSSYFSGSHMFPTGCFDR
UniProt Q9Y698: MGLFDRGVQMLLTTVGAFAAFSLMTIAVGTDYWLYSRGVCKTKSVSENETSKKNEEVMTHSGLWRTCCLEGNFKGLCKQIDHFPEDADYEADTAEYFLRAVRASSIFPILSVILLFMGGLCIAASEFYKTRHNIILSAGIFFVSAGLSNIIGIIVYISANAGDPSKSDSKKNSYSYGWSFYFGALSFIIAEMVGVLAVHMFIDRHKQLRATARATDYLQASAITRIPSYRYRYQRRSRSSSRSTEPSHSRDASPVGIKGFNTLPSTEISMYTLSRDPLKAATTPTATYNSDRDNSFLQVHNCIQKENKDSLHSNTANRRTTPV
UniProt Q96NC0: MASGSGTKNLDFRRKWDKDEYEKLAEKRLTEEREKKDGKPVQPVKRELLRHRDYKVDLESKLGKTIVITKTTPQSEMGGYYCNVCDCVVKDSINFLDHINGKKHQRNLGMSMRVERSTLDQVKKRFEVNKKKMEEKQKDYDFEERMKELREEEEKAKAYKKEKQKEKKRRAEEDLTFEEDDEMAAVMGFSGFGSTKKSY

Legend:
Assay in all cases: human ORF protein microarray
ZNF165 (Homo sapiens) = biological target: T1, ZNF165 (Homo sapiens) (UniProt P49910); settings: 5' phosphate; Domain array: 20 mM Tris-HCl pH 7.4, 200 mM KCl, 0.2 mM EDTA, 0.05% NP40, 2 ug/ul heparin, overnight 4 C. ORF array: PBS pH 7.0 with RNase inhibitor, 100 ng RNA, 1 h.; recombinant protein; protein details: N-terminal GST-6xHis; label: internal DY647 at G18; letters put together from the description
T1 sequence (looked up, limits assumed): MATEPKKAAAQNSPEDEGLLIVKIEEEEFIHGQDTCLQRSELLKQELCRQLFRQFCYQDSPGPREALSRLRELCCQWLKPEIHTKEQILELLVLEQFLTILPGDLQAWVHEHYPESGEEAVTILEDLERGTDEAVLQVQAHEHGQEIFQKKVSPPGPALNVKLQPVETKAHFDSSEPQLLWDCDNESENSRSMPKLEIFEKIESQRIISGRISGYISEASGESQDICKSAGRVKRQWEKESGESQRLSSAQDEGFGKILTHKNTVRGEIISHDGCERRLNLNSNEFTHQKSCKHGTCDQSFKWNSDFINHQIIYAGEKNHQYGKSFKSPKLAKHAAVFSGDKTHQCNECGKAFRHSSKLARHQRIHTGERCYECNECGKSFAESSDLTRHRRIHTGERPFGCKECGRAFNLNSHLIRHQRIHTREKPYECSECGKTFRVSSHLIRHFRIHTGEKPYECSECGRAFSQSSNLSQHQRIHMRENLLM

HTATIP (Homo sapiens) = HTATIP (Homo sapiens) (UniProt Q92993); settings: 5' phosphate; Domain array: 20 mM Tris-HCl pH 7.4, 200 mM KCl, 0.2 mM EDTA, 0.05% NP40, 2 ug/ul heparin, overnight 4 C. ORF array: PBS pH 7.0 with RNase inhibitor, 100 ng RNA, 1 h.; recombinant protein; protein details: N-terminal GST-6xHis; label: internal DY647 at G18; letters put together from the description
CXorf26 (Homo sapiens) = biological target: T2, CXorf26 (Homo sapiens) (UniProt Q9BVG4); settings: 5' phosphate; Domain array: 20 mM Tris-HCl pH 7.4, 200 mM KCl, 0.2 mM EDTA, 0.05% NP40, 2 ug/ul heparin, overnight 4 C. ORF array: PBS pH 7.0 with RNase inhibitor, 100 ng RNA, 1 h.; recombinant protein; protein details: N-terminal GST-6xHis; label: internal DY647 at G18; letters put together from the description
T2 sequence (looked up, limits assumed): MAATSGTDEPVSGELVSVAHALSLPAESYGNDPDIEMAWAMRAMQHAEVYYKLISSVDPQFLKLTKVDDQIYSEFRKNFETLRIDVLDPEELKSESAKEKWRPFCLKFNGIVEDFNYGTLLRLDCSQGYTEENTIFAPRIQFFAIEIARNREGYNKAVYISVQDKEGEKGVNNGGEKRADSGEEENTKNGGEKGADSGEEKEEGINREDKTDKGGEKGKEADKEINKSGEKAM

TXNL4B (Homo sapiens) = biological target: T3, TXNL4B (Homo sapiens) (UniProt Q9NX01); settings: 5' phosphate; Domain array: 20 mM Tris-HCl pH 7.4, 200 mM KCl, 0.2 mM EDTA, 0.05% NP40, 2 ug/ul heparin, overnight 4 C. ORF array: PBS pH 7.0 with RNase inhibitor, 100 ng RNA, 1 h.; recombinant protein; protein details: N-terminal GST-6xHis; label: internal DY647 at G18; letters put together from the description
T3 sequence (looked up, limits assumed): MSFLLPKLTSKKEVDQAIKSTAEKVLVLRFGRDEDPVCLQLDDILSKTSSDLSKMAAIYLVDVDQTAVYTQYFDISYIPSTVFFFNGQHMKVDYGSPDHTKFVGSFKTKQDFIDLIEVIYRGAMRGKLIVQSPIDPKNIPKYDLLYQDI

TMEM185A (Homo sapiens) = TMEM185A (Homo sapiens) (UniProt Q8NFB2); settings: 5' phosphate; Domain array: 20 mM Tris-HCl pH 7.4, 200 mM KCl, 0.2 mM EDTA, 0.05% NP40, 2 ug/ul heparin, overnight 4 C. ORF array: PBS pH 7.0 with RNase inhibitor, 100 ng RNA, 1 h.; recombinant protein; protein details: N-terminal GST-6xHis; label: internal DY647 at G18; letters put together from the description
CCNJL (Homo sapiens) = CCNJL (Homo sapiens) (UniProt Q8IV13); settings: 5' phosphate; Domain array: 20 mM Tris-HCl pH 7.4, 200 mM KCl, 0.2 mM EDTA, 0.05% NP40, 2 ug/ul heparin, overnight 4 C. ORF array: PBS pH 7.0 with RNase inhibitor, 100 ng RNA, 1 h.; recombinant protein; protein details: N-terminal GST-6xHis; label: internal DY647 at G18; letters put together from the description
TIA1 (Homo sapiens) = biological target: T4, TIA1 (Homo sapiens) (UniProt P31483); settings: 5' phosphate; Domain array: 20 mM Tris-HCl pH 7.4, 200 mM KCl, 0.2 mM EDTA, 0.05% NP40, 2 ug/ul heparin, overnight 4 C. ORF array: PBS pH 7.0 with RNase inhibitor, 100 ng RNA, 1 h.; recombinant protein; protein details: N-terminal GST-6xHis; label: internal DY647 at G18; letters put together from the description
T4 sequence (looked up, limits assumed): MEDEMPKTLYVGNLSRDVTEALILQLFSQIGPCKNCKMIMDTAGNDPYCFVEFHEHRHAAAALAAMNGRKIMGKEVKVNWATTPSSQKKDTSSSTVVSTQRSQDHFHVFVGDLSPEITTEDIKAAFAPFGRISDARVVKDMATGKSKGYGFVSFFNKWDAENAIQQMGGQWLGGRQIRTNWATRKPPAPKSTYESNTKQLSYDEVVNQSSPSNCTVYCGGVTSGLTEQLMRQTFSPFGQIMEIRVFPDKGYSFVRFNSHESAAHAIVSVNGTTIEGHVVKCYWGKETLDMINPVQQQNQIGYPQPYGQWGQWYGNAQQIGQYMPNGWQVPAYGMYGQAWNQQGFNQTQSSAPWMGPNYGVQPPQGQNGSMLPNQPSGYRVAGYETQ

CACNG2 (Homo sapiens) = CACNG2 (Homo sapiens) (UniProt Q9Y698); settings: 5' phosphate; amino-C6 U at position 18; Domain array: 20 mM Tris-HCl pH 7.4, 200 mM KCl, 0.2 mM EDTA, 0.05% NP40, 2 ug/ul heparin, overnight 4 C. ORF array: PBS pH 7.0 with RNase inhibitor, 100 ng RNA, 1 h.; recombinant protein; protein details: N-terminal GST-6xHis; label: internal Cy5 or DY647
ZMAT2 (Homo sapiens) = ZMAT2 (Homo sapiens) (UniProt Q96NC0); settings: 5' phosphate; amino-C6 U at position 18; Domain array: 20 mM Tris-HCl pH 7.4, 200 mM KCl, 0.2 mM EDTA, 0.05% NP40, 2 ug/ul heparin, overnight 4 C. ORF array: PBS pH 7.0 with RNase inhibitor, 100 ng RNA, 1 h.; recombinant protein; protein details: N-terminal GST-6xHis; label: internal Cy5 or DY647
RNASE1 (Homo sapiens) = biological target: T5, RNASE1 (Homo sapiens) (UniProt P07998); settings: 5' phosphate; amino-C6 U at position 18; Domain array: 20 mM Tris-HCl pH 7.4, 200 mM KCl, 0.2 mM EDTA, 0.05% NP40, 2 ug/ul heparin, overnight 4 C. ORF array: PBS pH 7.0 with RNase inhibitor, 100 ng RNA, 1 h.; recombinant protein; protein details: N-terminal GST-6xHis; label: internal Cy5 or DY647
T5 sequence (looked up, limits assumed): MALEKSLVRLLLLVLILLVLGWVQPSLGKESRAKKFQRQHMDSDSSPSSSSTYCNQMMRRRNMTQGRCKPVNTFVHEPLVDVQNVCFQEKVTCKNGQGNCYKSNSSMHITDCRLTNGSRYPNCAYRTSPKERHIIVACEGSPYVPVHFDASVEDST

THG1L (Homo sapiens) = biological target: T6, THG1L (Homo sapiens) (UniProt Q9NWX6); settings: 5' phosphate; amino-C6 U at position 18; Domain array: 20 mM Tris-HCl pH 7.4, 200 mM KCl, 0.2 mM EDTA, 0.05% NP40, 2 ug/ul heparin, overnight 4 C. ORF array: PBS pH 7.0 with RNase inhibitor, 100 ng RNA, 1 h.; recombinant protein; protein details: N-terminal GST-6xHis; label: internal Cy5 or DY647
T6 sequence (looked up, limits assumed): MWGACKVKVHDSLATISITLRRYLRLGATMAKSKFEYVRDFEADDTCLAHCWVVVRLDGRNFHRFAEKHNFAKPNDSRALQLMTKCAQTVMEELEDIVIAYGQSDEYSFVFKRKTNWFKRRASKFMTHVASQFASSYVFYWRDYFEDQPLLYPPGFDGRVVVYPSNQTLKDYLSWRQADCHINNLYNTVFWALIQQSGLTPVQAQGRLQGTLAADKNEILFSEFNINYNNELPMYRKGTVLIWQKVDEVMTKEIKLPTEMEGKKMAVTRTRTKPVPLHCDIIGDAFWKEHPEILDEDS

Measured: binding result

CAGUGCAAUGAUGAAAGGGCAU [miR-130b (internal labeling)]
binds: ZNF165 (Homo sapiens) | HTATIP (Homo sapiens) | CXorf26 (Homo sapiens)

UAGCUUAUCAGACUGAUGUUGA [miR-21 (internal labeling)]
binds: TXNL4B (Homo sapiens) | TMEM185A (Homo sapiens) | CCNJL (Homo sapiens) | TIA1 (Homo sapiens)

UGAGGUAGUAGGUUGUGUGGUU [let-7b (internal labeling)]
binds: CACNG2 (Homo sapiens) | ZMAT2 (Homo sapiens) | RNASE1 (Homo sapiens) | THG1L (Homo sapiens)
